Measured values from publication PMC3419192.
These are yes or no findings as the source states them, for the method shown. Binding seen in cells or lysates may run through a third protein. Some binding calls cover weakened binding; strength is not graded here. Tags and fused reporters may be left off the sequences shown.

By UniProt entry, the sequences of proteins in these tests, tags left out.
UniProt P23804: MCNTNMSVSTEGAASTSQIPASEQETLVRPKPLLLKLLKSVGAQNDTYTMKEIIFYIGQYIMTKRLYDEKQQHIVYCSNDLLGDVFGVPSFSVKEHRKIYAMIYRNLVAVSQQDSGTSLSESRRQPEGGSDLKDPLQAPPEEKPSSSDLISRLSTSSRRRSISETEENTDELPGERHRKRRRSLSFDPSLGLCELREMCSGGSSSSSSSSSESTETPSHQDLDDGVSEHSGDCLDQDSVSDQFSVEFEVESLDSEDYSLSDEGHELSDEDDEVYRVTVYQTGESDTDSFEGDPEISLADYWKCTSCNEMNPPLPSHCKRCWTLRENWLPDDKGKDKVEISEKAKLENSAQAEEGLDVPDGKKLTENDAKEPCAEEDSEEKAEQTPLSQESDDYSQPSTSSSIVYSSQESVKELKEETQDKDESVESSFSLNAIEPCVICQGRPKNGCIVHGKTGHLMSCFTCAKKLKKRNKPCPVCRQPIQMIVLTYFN

Key:
[1] = target: T1, FLAG-necdin, full-length (pCMV-FLAG-Necdin) (UniProt P25233); assay: co-IP; Dynabeads Protein A with anti-CCAR1, anti-MDM2, anti-necdin or unspecific IgG; 1.5 mg extract of C2C12 transfected with pCMV-FLAG-Necdin, pCMV-Tag3b-Myc-MDM2 and pSG5-HA-CCAR1, or of Tibialis anterior of tgMlcNec mice, 5 h at 4 °C; western blot
T1 sequence: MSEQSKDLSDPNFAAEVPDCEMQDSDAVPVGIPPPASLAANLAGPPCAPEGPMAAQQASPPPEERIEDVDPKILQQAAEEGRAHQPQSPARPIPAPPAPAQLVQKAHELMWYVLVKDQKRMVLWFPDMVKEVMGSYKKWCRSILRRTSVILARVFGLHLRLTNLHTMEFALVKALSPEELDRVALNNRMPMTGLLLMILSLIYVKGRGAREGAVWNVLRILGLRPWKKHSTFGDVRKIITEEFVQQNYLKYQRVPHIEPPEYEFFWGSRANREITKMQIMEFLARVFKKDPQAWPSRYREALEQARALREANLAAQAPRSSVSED

HA-CCAR1 (pSG5-HA-CCAR1) = target: T2, HA-CCAR1 (pSG5-HA-CCAR1) (UniProt Q8CH18); assay: as above
T2 sequence: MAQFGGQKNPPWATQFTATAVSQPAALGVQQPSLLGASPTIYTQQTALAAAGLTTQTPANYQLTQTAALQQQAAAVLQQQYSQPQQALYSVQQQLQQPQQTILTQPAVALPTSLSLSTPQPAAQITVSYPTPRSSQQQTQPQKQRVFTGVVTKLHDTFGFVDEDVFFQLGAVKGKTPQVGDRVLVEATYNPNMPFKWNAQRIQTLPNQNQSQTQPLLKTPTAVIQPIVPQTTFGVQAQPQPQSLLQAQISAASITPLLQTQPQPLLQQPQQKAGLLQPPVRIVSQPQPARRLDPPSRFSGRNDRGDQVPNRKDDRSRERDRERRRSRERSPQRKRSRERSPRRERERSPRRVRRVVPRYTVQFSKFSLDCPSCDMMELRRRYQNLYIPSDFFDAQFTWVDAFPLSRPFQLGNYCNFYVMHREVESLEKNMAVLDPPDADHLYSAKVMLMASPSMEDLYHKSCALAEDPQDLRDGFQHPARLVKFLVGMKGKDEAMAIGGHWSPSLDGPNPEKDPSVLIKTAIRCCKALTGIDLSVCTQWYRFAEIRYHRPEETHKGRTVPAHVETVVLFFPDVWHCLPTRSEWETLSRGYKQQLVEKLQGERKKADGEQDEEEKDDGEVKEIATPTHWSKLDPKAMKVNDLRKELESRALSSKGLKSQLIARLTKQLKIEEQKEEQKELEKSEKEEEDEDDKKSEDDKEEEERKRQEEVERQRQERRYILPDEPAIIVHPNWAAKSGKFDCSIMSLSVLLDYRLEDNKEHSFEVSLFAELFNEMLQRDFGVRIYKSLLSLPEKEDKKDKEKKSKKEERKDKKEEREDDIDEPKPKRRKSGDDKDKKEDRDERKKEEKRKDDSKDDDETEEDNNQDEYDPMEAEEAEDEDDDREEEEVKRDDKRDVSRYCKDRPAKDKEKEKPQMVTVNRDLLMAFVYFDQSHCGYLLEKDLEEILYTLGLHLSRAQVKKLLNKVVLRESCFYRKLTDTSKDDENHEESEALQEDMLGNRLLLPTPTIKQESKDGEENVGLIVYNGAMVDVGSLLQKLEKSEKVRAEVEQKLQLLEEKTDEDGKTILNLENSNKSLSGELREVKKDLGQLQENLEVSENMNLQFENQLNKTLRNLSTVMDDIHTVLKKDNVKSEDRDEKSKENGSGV

- binding [1]: binds
- binding (HA-CCAR1 (pSG5-HA-CCAR1)): binds
Substance: Myc-MDM2, full-length (pCMV-Tag3b-Myc-MDM2) (from UniProt P23804 1-489)
